How the values were obtained:
[1] = Evaluation by trained and/or certified flavor or fragrance chemists or master perfumers; categorization by commercial prospect; settings: for Rating (category of commercial prospect): evaluation by trained flavor or fragrance chemists or master perfumers; for Rating: category of commercial prospect, (A) highest > (B) > (C) > (D) lowest, (E) requires further study
[2] = test system: odor evaluation panel; assay: Odor evaluation panel rating of odorants by Rate-All-That-Apply (RATA) method with 55-word odor lexicon, plus intensity and pleasantness; parameters: species or system human; settings: for Floral: mean panelist score for odor label floral (RATA); for Fruity: mean panelist score for odor label fruity (RATA); for Spicy: mean panelist score for odor label spicy (RATA); for Sweet: mean panelist score for odor label sweet (RATA); for Pleasantness: mean panelist score for odor pleasantness

## CC(C)CCN(CCC(C)C)CCC(C)C [Compound 563, 3-methyl-N,N-bis(3-methylbutyl)butan-1-amine]
[1]
  Rating (category of commercial prospect): (D)
[2]
  Floral: 0.438
  Fruity: 1.062
  Spicy: 0
  Sweet: 1.031
  Pleasantness: 4.159

## CCN1CCCC1CN (centres unmarked) [Compound 971, (1-ethylpyrrolidin-2-yl)methanamine]
[1]
  Rating (category of commercial prospect): (D)
[2]
  Floral: 0.062
  Fruity: 0
  Spicy: 0.125
  Sweet: 0
  Pleasantness: 4.106

## CN(c1ccccc1)c1ccccc1 [Compound 847, N-methyl-N-phenylaniline]
[1]
  Rating (category of commercial prospect): (D)
[2]
  Floral: 0.278
  Fruity: 0.139
  Spicy: 0.25
  Sweet: 0.278

## OCCN1CCCCC1 [Compound 452, 2-piperidin-1-ylethanol]
[1]
  Rating: (D)
[2]
  Floral: 0.212
  Fruity: 0
  Spicy: 0
  Sweet: 0.333
  Pleasantness: 4.242

## NC(CO)Cc1ccccc1 (centres unmarked) [Compound 238, 2-amino-3-phenylpropan-1-ol]
[1]
  Rating: (D)
[2]
  Floral: 0.2
  Fruity: 0
  Spicy: 0.114
  Sweet: 0.114
  Pleasantness: 3.891

## CCOC(CC(OCC)OCC)OCC [Compound 703, 1,1,3,3-tetraethoxypropane]
[1]
  Rating (category of commercial prospect): (C)
[2]
  Floral: 0.25
  Fruity: 0.194
  Spicy: 0.083
  Sweet: 0.611

## COc1ccc2c(c1)C(=O)CCC2 [Compound 976, 7-methoxy-3,4-dihydro-2H-naphthalen-1-one]
[1]
  Rating (category of commercial prospect): (B)
[2]
  Floral: 0.086
  Fruity: 0.143
  Spicy: 0.171
  Sweet: 0.143
  Pleasantness: 4.826

## CCC(C)(O)C(=O)O (centres unmarked) [Compound 239, 2-hydroxy-2-methylbutanoic acid]
[1]
  Rating: (D)
[2]
  Floral: 0
  Fruity: 0.543
  Spicy: 0
  Sweet: 0.286
  Pleasantness: 5.266

## N#Cc1ccncc1 [Compound 261, pyridine-4-carbonitrile]
[1]
  Rating: (B)
[2]
  Floral: 0.143
  Fruity: 0.429
  Spicy: 0.057
  Sweet: 0.829
  Pleasantness: 5.774

## OCC1CCOC1 (centres unmarked) [Compound 504, oxolan-3-ylmethanol]
[1]
  Rating: (B)
[2]
  Floral: 0.056
  Fruity: 0.306
  Spicy: 0
  Sweet: 0.361

## COC(=O)C(C)(C)C#N [Compound 385, methyl 2-cyano-2-methylpropanoate]
[1]
  Rating: (D)
[2]
  Floral: 0.176
  Fruity: 0.441
  Spicy: 0.176
  Sweet: 0.529
  Pleasantness: 3.8

## CSc1ccc(N)cc1 [Compound 499, 4-methylsulfanylaniline]
[1]
  Rating: (D)
[2]
  Floral: 0
  Fruity: 0
  Spicy: 0.529
  Sweet: 0
  Pleasantness: 3.509

## Cc1ccc(CC(=O)O)cc1 [Compound 920, 2-(4-methylphenyl)acetic acid]
[1]
  Rating (category of commercial prospect): (A)
[2]
  Floral: 0.594
  Fruity: 0.281
  Spicy: 0.25
  Sweet: 0.562
  Pleasantness: 3.928

## CC(O)C1CC1 (centres unmarked) [Compound 6, 1-cyclopropylethanol]
[1]
  Rating: (D)
[2]
  Floral: 0.056
  Fruity: 0.056
  Spicy: 0
  Sweet: 0.278

## OC(c1ccccc1)C1CC1 (centres unmarked) [Compound 545, cyclopropyl(phenyl)methanol]
[1]
  Rating: (D)
[2]
  Floral: 0.719
  Fruity: 0.156
  Spicy: 0.438
  Sweet: 1.406
  Pleasantness: 5.784

## CC(NC(=O)OC(C)(C)C)C(=O)O (racemic) [Compound 12, boc-DL-alanine]
[1]
  Rating: (D)
[2]
  Floral: 0.528
  Fruity: 0.667
  Spicy: 0.056
  Sweet: 1.306

## CC(C)C(C)(C#N)C(C)C [Compound 745, 2,3-dimethyl-2-propan-2-ylbutanenitrile]
[1]
  Rating (category of commercial prospect): (C)
[2]
  Floral: 0
  Fruity: 0
  Spicy: 0.114
  Sweet: 0.371
  Pleasantness: 6.283

## CCCCC(O)CCCC [Compound 693, nonan-5-ol]
[1]
  Rating (category of commercial prospect): (B)
[2]
  Floral: 0.472
  Fruity: 2
  Spicy: 0.194
  Sweet: 1.5

## CCOC(=O)c1cnoc1C [Compound 50, ethyl 5-methyl-1,2-oxazole-4-carboxylate]
[1]
  Rating: (A)
[2]
  Floral: 0.485
  Fruity: 1.394
  Spicy: 0.121
  Sweet: 1.909
  Pleasantness: 6.527

## N#CC1CCOCC1 [Compound 946, oxane-4-carbonitrile]
[1]
  Rating (category of commercial prospect): (D)
[2]
  Floral: 0.914
  Fruity: 1.457
  Spicy: 0
  Sweet: 1.886
  Pleasantness: 5.92

## COC(CSC)OC [Compound 301, 1,1-dimethoxy-2-methylsulfanylethane]
[1]
  Rating: (D)
[2]
  Floral: 0.03
  Fruity: 0
  Spicy: 0.939
  Sweet: 0.152
  Pleasantness: 6.236

## Cc1csc(=S)[nH]1 [Compound 717, 4-methyl-3H-1,3-thiazole-2-thione]
[1]
  Rating (category of commercial prospect): (D)
[2]
  Floral: 0
  Fruity: 0
  Spicy: 0.636
  Sweet: 0.364
  Pleasantness: 5.785

## CCC(=O)C(C)CN(C)C (centres unmarked) [Compound 92, 1-(dimethylamino)-2-methylpentan-3-one]
[1]
  Rating: (D)
[2]
  Floral: 0.125
  Fruity: 0
  Spicy: 0.25
  Sweet: 0.312
  Pleasantness: 3.972

## CC(=O)CC(=O)N(C)C [Compound 181, N,N-dimethyl-3-oxobutanamide]
[1]
  Rating: (D)
[2]
  Floral: 0.182
  Fruity: 0.212
  Spicy: 0.091
  Sweet: 0.455
  Pleasantness: 4.176

## C#CCCCO [Compound 777, pent-4-yn-1-ol]
[1]
  Rating (category of commercial prospect): (B)
[2]
  Floral: 0
  Fruity: 0
  Spicy: 0.219
  Sweet: 0.156
  Pleasantness: 3.984

## O=C1CCc2cc(O)ccc21 [Compound 887, 5-hydroxy-2,3-dihydroinden-1-one]
[1]
  Rating (category of commercial prospect): (D)
[2]
  Floral: 0.056
  Fruity: 0
  Spicy: 0
  Sweet: 0.139

## Cc1c[nH]c(C)c1 [Compound 139, 2,4-dimethyl-1H-pyrrole]
[1]
  Rating: (D)
[2]
  Floral: 0.188
  Fruity: 0.375
  Spicy: 0.062
  Sweet: 0.656
  Pleasantness: 5.434

## CC(C)(C)OC(=O)Nc1nccs1 [Compound 472, tert-butyl N-(1,3-thiazol-2-yl)carbamate]
[1]
  Rating: (D)
[2]
  Floral: 0.056
  Fruity: 0
  Spicy: 0
  Sweet: 0.306

## CC(C)=CC=C(C)C [Compound 600, 2,5-dimethylhexa-2,4-diene]
[1]
  Rating (category of commercial prospect): (D)
[2]
  Floral: 0.156
  Fruity: 0.281
  Spicy: 0.094
  Sweet: 0.5
  Pleasantness: 4.484

## C[C@]12C(=O)OC(=O)[C@H]1[C@H]1C=C[C@@H]2C1 [Compound 507, (1S,2R,6S,7R)-2-methyl-4-oxatricyclo[5.2.1.02,6]dec-8-ene-3,5-dione]
[1]
  Rating: (D)
[2]
  Floral: 0.314
  Fruity: 0.4
  Spicy: 0.257
  Sweet: 0.314
  Pleasantness: 5.034

## CC1=NC(C)(C)CO1 [Compound 317, 2,4,4-trimethyl-5H-1,3-oxazole]
[1]
  Rating: (D)
[2]
  Floral: 0.29
  Fruity: 0.742
  Spicy: 0.097
  Sweet: 0.645
  Pleasantness: 4.623

## NC1CCCCC1O (centres unmarked) [Compound 604, 2-aminocyclohexan-1-ol]
[1]
  Rating (category of commercial prospect): (D)
[2]
  Floral: 0.094
  Fruity: 0
  Spicy: 0.031
  Sweet: 0
  Pleasantness: 3.619

## CC(C)C1CCC(C(=O)O)CC1 (centres unmarked) [Compound 630, 4-propan-2-ylcyclohexane-1-carboxylic acid]
[1]
  Rating (category of commercial prospect): (D)
[2]
  Floral: 0
  Fruity: 0
  Spicy: 0.647
  Sweet: 0.235
  Pleasantness: 3.144

## CCOC(=O)CN(C)C [Compound 631, ethyl 2-(dimethylamino)acetate]
[1]
  Rating (category of commercial prospect): (D)
[2]
  Floral: 0.156
  Fruity: 0
  Spicy: 0.125
  Sweet: 0.344
  Pleasantness: 2.303

## CCCCCCn1ccnc1 [Compound 222, 1-hexylimidazole]
[1]
  Rating: (D)
[2]
  Floral: 0.139
  Fruity: 0.028
  Spicy: 0
  Sweet: 0.139

## c1ccn2ccnc2c1 [Compound 230, imidazo[1,2-a]pyridine]
[1]
  Rating: (D)
[2]
  Floral: 0
  Fruity: 0.111
  Spicy: 0.278
  Sweet: 0.139

## COC(=O)C1CCOCC1 [Compound 427, methyl oxane-4-carboxylate]
[1]
  Rating: (B)
[2]
  Floral: 0.594
  Fruity: 1.844
  Spicy: 0
  Sweet: 1.906
  Pleasantness: 5.772
